Where “and” joins values, the source holds several entries; their conditions need not be identical. Equal entries are not always repeated. Structures can show the parent of a compound that is named as a salt. ± gives the standard deviation of the averaged measurements. Some of the results follow. Repeats are few or missing, and single values can be far off.
Tested on: RAW 264.7
Assay: cell viability (MTT) relative to vehicle control; higher = more viable cells
Details: stimulus: HMGB1 5 ug/ml, 18 h
[1] = compound concentration: 1 ug/ml

| SMILES | cell viability (compound concentration: 3 uM) | cell viability [1] |
| --- | --- | --- |
| CC(=O)N[C@@H](CC(C)C)C(=O)O | 111% | – |
| CC(=O)N[C@@H](CC(C)C)C(=O)O [N-Acetyl-L-leucine] | 101% | – |
| CC(C)C[C@H](NC(=O)[C@@H](Cc1c[nH]c2ccccc12)NC(=O)[C@H](Cc1ccc(O)cc1)NC(=O)[C@H](CO)NC(=O)[C@H](Cc1c[nH]c2ccccc12)NC(=O)[C@H](Cc1c[nH]cn1)NC(=O)[C@@H]1CCC(=O)N1)C(=O)N[C@@H](CCCNC(=N)N)C(=O)N1CCC[C@H]1C(=O)NCC(N)=O [Triptorelin] | 113% | – |
| O=C([O-])[C@H]1/C(=C/CO)O[C@@H]2CC(=O)N21.[Li+] | 101% | – |
| Nc1nc(Cl)nc2c1ncn2[C@@H]1O[C@H](CO)[C@@H](O)[C@@H]1F [Clofarabine] | 73.8% | – |
| Cc1ccc2oc(=O)c(-c3ccc(O)cc3)c(C)c2c1 [4,6-Dimethyl-3(4'-hydroxyphenyl)coumarin] | – | 102% |
| CC(N)=O [Acetamide] | 106% | – |
| Nc1nc(=S)c2ncn([C@@H]3O[C@H](CO)[C@@H](O)[C@H]3O)c2[nH]1 [Thioguanosine] | 78.6% | – |
| CC(N)(C(=O)O)c1ccc(C(=O)O)cc1 (racemic) [(±)-alpha-Methyl-4-carboxyphenylglycine] | 109% | – |
| CC(C)NCC(O)COc1ccc(COCCOC(C)C)cc1 (stereo not drawn) | 106 ± 13% | – |
| CC(C)NCC(O)COc1ccc(COCCOC(C)C)cc1 (stereo not drawn) [Bisoprolol hemifumarate salt] | 108% | – |
| CC(C)NCC(O)COc1ccc(COCCOC(C)C)cc1 (stereo not drawn) [Bisoprolol fumarate] | 110% | – |
| CC(C)=CCCC(C)CCO (stereo not drawn) [Citronellol] | – | 99.5% |
| O=C1CN2Cc3c(ccc(Cl)c3Cl)N=C2N1 [Anagrelide] | 102% | – |
| O=C1CN2Cc3c(ccc(Cl)c3Cl)N=C2N1 | 90.3% and 110% | – |
| CO[C@H]1/C=C/O[C@@]2(C)Oc3c(C)c(O)c4c(c3C2=O)C2=NC3(CCN(CC(C)C)CC3)NC2=C(NC(=O)/C(C)=C\C=C\[C@H](C)[C@H](O)[C@@H](C)[C@@H](O)[C@@H](C)[C@H](OC(C)=O)[C@@H]1C)C4=O | 102% | – |
| CO[C@H]1/C=C/O[C@@]2(C)Oc3c(C)c(O)c4c(c3C2=O)C2=NC3(CCN(CC(C)C)CC3)NC2=C(NC(=O)/C(C)=C\C=C\[C@H](C)[C@H](O)[C@@H](C)[C@@H](O)[C@@H](C)[C@H](OC(C)=O)[C@@H]1C)C4=O [Rifabutin] | 107% | – |
| O=c1cc(-c2ccc(O)cc2)oc2cc(O)cc(O)c12 [Apigenin] | 103% | 84.5% |
| CC(=O)OCC(COC(C)=O)OC(C)=O | 112% | – |
| O=C(Cn1ccnc1[N+](=O)[O-])NCCO | 97.5 ± 0.11% | – |
| O=C(Cn1ccnc1[N+](=O)[O-])NCCO [Etanidazole] | 108% | – |
| C[C@@H](N)[C@H]1CC[C@H](C(=O)Nc2ccncc2)CC1 | 113% | – |
| NC[C@H]1O[C@@H](n2cnc3c(N)ncnc32)[C@H](O)[C@@H]1O [5'-Amino-5'-deoxyadenosine p-toluenesulfonate salt] | 115% | – |
| Cn1c(=O)[nH]c2c([nH]c(=O)n2C)c1=O [1,9-dimethyluric acid] | – | 96.9% |
| COc1c(O[C@@H]2O[C@H](CO)[C@@H](O)[C@H](O)[C@H]2O)cc2c(c1OC)-c1ccc(SC)c(=O)cc1[C@@H](NC(C)=O)CC2 [Thiocolchicoside] | 82.7% | – |
| CN(C)CCN(Cc1cccs1)c1ccccn1 [Methapyrilene hydrochloride] | 101 ± 19% | – |

| SMILES | cell viability (compound concentration: 3 uM) | cell viability [1] |
| --- | --- | --- |
| CN(C)CCN(Cc1cccs1)c1ccccn1 | 116% | – |
| COc1ccc(CCNc2nc(Cl)nc(N3CC4CC(C3)c3cccc(=O)n3C4)n2)cc1OC (stereo not drawn) | – | 108% |
| NC(=O)N1c2ccccc2C=Cc2ccccc21 | 107% | – |
| NC(=O)N1c2ccccc2C=Cc2ccccc21 [Carbamazepine] | 99.8 ± 6% | – |
| CCOC(=O)C1=C(C)NC(C)=C(C(=O)OCC)C1c1c(F)c(F)c(F)c(F)c1F [Nemadipine-A] | 111% | – |
| Clc1ccc(C(Cn2ccnc2)OCc2c(Cl)cccc2Cl)c(Cl)c1 (stereo not drawn) [Isoconazole] | 98.5% | – |
| NCCC[C@H](N)C(=O)O | 112% | – |
| CCSC(=N)N [S-Ethylisothiourea hydrobromide] | 107% | – |
| CCCCC[C@H](O)/C=C/[C@@H]1[C@@H](C/C=C\CCCC(=O)O)[C@@H](O)C[C@H]1O [Dinoprost trometamol] | 102% | – |
| CCCCC[C@H](O)/C=C/[C@@H]1[C@@H](C/C=C\CCCC(=O)O)[C@@H](O)C[C@H]1O [Dinoprost] | 102% | – |
| CC(=O)c1ccc(S(=O)(=O)NC(=O)NC2CCCCC2)cc1 | 109% | – |
| CC(=O)c1ccc(S(=O)(=O)NC(=O)NC2CCCCC2)cc1 [Acetohexamide] | 99.9 ± 12% | – |
| CC(COc1ccccc1)N(CCCl)Cc1ccccc1 (stereo not drawn) [Phenoxybenzamine HCl] | 105% | – |
| CC(COc1ccccc1)N(CCCl)Cc1ccccc1 (stereo not drawn) [Phenoxybenzamine hydrochloride] | 94.5 ± 1.6% | – |
| CC(COc1ccccc1)N(CCCl)Cc1ccccc1 (stereo not drawn) | 108% | – |
| Nc1ncn([C@@H]2O[C@H](CO)[C@@H](O)[C@H]2O)c(=O)n1 [5-azacytidine] | 61.2% | – |
| Nc1ncn([C@@H]2O[C@H](CO)[C@@H](O)[C@H]2O)c(=O)n1 | 71.6 ± 18% | – |
| COc1ccc(CN(CCN(C)C)c2ccccn2)cc1 [Pyrilamine maleate] | 101 ± 2% | – |
| COc1ccc(CN(CCN(C)C)c2ccccn2)cc1 [Mepyramine] | 94.6% | – |
| COc1ccc(CN(CCN(C)C)c2ccccn2)cc1 | 99.2% | – |
| CCCNC(C)C(=O)Nc1ccccc1C (stereo not drawn) [Prilocaine hydrochloride] | 100 ± 2.6% | – |
| CCCNC(C)C(=O)Nc1ccccc1C (stereo not drawn) | 102% | – |
| CNc1ncnc2c1ncn2[C@H]1C[C@H](OP(=O)(O)O)[C@@H](COP(=O)(O)O)O1 | 103% | – |
| CC(C)C[C@H](NC(=O)[C@@H](COC(C)(C)C)NC(=O)[C@H](Cc1ccc(O)cc1)NC(=O)[C@H](CO)NC(=O)[C@H](Cc1c[nH]c2ccccc12)NC(=O)[C@H](Cc1cnc[nH]1)NC(=O)[C@@H]1CCC(=O)N1)C(=O)N[C@@H](CCCNC(=N)N)C(=O)N1CCC[C@H]1C(=O)NNC(N)=O | 98.1% | – |
| CC(C)C[C@H](NC(=O)[C@@H](COC(C)(C)C)NC(=O)[C@H](Cc1ccc(O)cc1)NC(=O)[C@H](CO)NC(=O)[C@H](Cc1c[nH]c2ccccc12)NC(=O)[C@H](Cc1cnc[nH]1)NC(=O)[C@@H]1CCC(=O)N1)C(=O)N[C@@H](CCCNC(=N)N)C(=O)N1CCC[C@H]1C(=O)NNC(N)=O [Goserelin] | 112% | – |
| Cc1cc(=O)oc2cc(O)ccc12 [Hymecromone] | 126% | – |

Shown as comma-separated lines: part of the list above.
SMILES,cell viability (compound concentration: 3 uM),cell viability [1]
CCCNC(C)C(=O)Nc1ccccc1C (stereo not drawn) [Prilocaine hydrochloride],100 ± 2.6%,–
CCCNC(C)C(=O)Nc1ccccc1C (stereo not drawn),102%,–
CNc1ncnc2c1ncn2[C@H]1C[C@H](OP(=O)(O)O)[C@@H](COP(=O)(O)O)O1,103%,–
CC(C)C[C@H](NC(=O)[C@@H](COC(C)(C)C)NC(=O)[C@H](Cc1ccc(O)cc1)NC(=O)[C@H](CO)NC(=O)[C@H](Cc1c[nH]c2ccccc12)NC(=O)[C@H](Cc1cnc[nH]1)NC(=O)[C@@H]1CCC(=O)N1)C(=O)N[C@@H](CCCNC(=N)N)C(=O)N1CCC[C@H]1C(=O)NNC(N)=O,98.1%,–
CC(C)C[C@H](NC(=O)[C@@H](COC(C)(C)C)NC(=O)[C@H](Cc1ccc(O)cc1)NC(=O)[C@H](CO)NC(=O)[C@H](Cc1c[nH]c2ccccc12)NC(=O)[C@H](Cc1cnc[nH]1)NC(=O)[C@@H]1CCC(=O)N1)C(=O)N[C@@H](CCCNC(=N)N)C(=O)N1CCC[C@H]1C(=O)NNC(N)=O [Goserelin],112%,–
Cc1cc(=O)oc2cc(O)ccc12 [Hymecromone],126%,–

The results go on:

| SMILES | cell viability (compound concentration: 3 uM) | cell viability [1] |
| --- | --- | --- |
| CNC(=O)c1cc2c(cn1)[nH]c1ccccc12 [N-Methyl-beta-carboline-3-carboxamide] | 108% | – |
| CCC(=O)N1CCN(C(=O)c2ccccc2)CC1 | 109% | – |
| CCCN[C@H]1CCc2nc(N)sc2C1 [Pramipexole] | 102 ± 10% | – |
| CCCN[C@H]1CCc2nc(N)sc2C1 | 90% | – |
| OC[C@H]1O[C@H]([S-])[C@H](O)[C@@H](O)[C@@H]1O.[Au+] [Aurothioglucose] | 94.3% | – |
| OC[C@H]1O[C@H]([S-])[C@H](O)[C@@H](O)[C@@H]1O.[Au+] | 103% | – |
| CCOC(=O)c1ccc(OC(=O)CCCCCNC(=N)N)cc1 | 101% | – |
| CCOC(=O)c1ccc(OC(=O)CCCCCNC(=N)N)cc1 [Gabexate mesilate] | 84.8% | – |
| CC[C@]1(O)C[C@@H]2CN(CCc3c([nH]c4ccccc34)[C@@](C(=O)OC)(c3cc4c(cc3OC)N(C)[C@H]3[C@@](O)(C(N)=O)[C@H](O)[C@]5(CC)C=CCN6CC[C@]43[C@@H]65)C2)C1 [Vindesine] | 99.4% | – |
| CC[C@]1(O)C[C@@H]2CN(CCc3c([nH]c4ccccc34)[C@@](C(=O)OC)(c3cc4c(cc3OC)N(C)[C@H]3[C@@](O)(C(N)=O)[C@H](O)[C@]5(CC)C=CCN6CC[C@]43[C@@H]65)C2)C1 | 68.8% | – |
| CC(COc1ccc(/C=C/c2ccccc2)cc1)[N+](C)(C)C (stereo not drawn) | 117% | – |
| COc1cc2cc3c4cc(OC)c(OC)cc4cc[n+]3c(C)c2cc1OC | 94% | – |
| c1ccc(C2CN3CCSC3=N2)cc1 (stereo not drawn) | 111% | – |
| c1ccc(C2CN3CCSC3=N2)cc1 (stereo not drawn) [Tetramisole hydrochloride] | 104 ± 16% | – |
| COc1cccc(-c2cc(=O)c3cc(O)ccc3o2)c1 | – | 86.4% |
| C=C1c2cccc(O)c2C(=O)C2=C(O)[C@]3(O)C(=O)C(C(N)=O)=C(O)[C@@H](N(C)C)[C@@H]3[C@@H](O)[C@H]12 | 114% | – |
| C=C1c2cccc(O)c2C(=O)C2=C(O)[C@]3(O)C(=O)C(C(N)=O)=C(O)[C@@H](N(C)C)[C@@H]3[C@@H](O)[C@H]12 [Methacycline hydrochloride] | 74.7% | – |
| Cn1c(=O)c2nc[nH]c2n(C)c1=O [Theophylline monohydrate] | 115% | – |
| Cn1c(=O)c2nc[nH]c2n(C)c1=O [Theophylline] | 117% | – |
| Cn1c(=O)c2nc[nH]c2n(C)c1=O | 113% | – |
| CN(C)CCC(c1ccc(Cl)cc1)c1ccccn1 (single isomer, unassigned; (+)) [(+)-Chlorpheniramine maleate] | 103% | – |
| CSCC[C@H](N)C(=O)Nc1ccc2c(C)cc(=O)oc2c1 [L-Methionine 7-amido-4-methylcoumarin trifluoroacetate salt] | – | 93.3% |
| Cc1scc2c1N(C(=O)CN1CCN(C)CC1)c1ccccc1NC2=O | 103% | – |
| Cc1scc2c1N(C(=O)CN1CCN(C)CC1)c1ccccc1NC2=O [Telenzepine dihydrochloride] | 109 ± 10% | – |
| Cc1scc2c1N(C(=O)CN1CCN(C)CC1)c1ccccc1NC2=O [Telenzepine] | 101% | – |
